Reference: patent publication CN115703834A
These are yes or no findings as the source states them, for the method shown. Some entries that bind do so weakly or less than the wild type.

Biological target: 食蟹猴CD47-his蛋白 (Acro biosystems, cat#CD7-C52H1, MW 15.8 kDa) (cynomolgus monkey)
Assay: capture ELISA, antibody captured on anti-mouse Fcγ, biotin-labelled cynomolgus CD47 at 60 nM

binding: binds
B1: 抗人CD47单克隆抗体1A5 (antibody, V domains shown)
VH: EVQLQQSGAELVRSGASVTLSCTASGFNIKDYYMNWVKQRPEQGLEWIGWIGPENGDTENDPRFQGKATMTADTSSNTAFLQLSSLTSEDTAFYYCNAGGRGGFPYWGQGTLVTVST
VL: DILLTQTPLSLPVSLGDQASFSCRSSQNIVHINGKTYLEWYLQKPGQSPKLLIYRVSNRFSGVPDRFSGSGSGTDFTLKISRVEAEDLGVYYCFQGSHVPRTFGGGTKLEIK
